The values that follow come from the supplement of paper PMC6411743.

By UniProt entry, the sequences of proteins in these tests, tags left out. Where a name states a change or a piece, a line headed by the entry shows the natural chain unless it says otherwise.
UniProt P13929, whole entry: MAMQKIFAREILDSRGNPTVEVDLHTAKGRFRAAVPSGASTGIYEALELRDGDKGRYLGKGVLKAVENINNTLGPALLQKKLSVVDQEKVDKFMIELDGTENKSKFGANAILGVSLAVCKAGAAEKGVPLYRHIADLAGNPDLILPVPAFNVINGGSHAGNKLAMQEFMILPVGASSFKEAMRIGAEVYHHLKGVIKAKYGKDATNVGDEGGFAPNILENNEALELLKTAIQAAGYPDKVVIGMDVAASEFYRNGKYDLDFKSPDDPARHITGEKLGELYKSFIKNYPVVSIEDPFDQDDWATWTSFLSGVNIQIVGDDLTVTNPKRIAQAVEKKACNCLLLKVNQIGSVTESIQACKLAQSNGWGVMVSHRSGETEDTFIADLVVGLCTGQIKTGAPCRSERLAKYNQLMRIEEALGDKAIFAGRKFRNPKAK
UniProt P20963, whole entry: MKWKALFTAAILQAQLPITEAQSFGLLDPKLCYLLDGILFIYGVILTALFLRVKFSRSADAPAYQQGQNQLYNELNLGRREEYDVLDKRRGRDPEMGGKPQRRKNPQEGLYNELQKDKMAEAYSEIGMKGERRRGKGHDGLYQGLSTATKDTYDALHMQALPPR
UniProt P12956: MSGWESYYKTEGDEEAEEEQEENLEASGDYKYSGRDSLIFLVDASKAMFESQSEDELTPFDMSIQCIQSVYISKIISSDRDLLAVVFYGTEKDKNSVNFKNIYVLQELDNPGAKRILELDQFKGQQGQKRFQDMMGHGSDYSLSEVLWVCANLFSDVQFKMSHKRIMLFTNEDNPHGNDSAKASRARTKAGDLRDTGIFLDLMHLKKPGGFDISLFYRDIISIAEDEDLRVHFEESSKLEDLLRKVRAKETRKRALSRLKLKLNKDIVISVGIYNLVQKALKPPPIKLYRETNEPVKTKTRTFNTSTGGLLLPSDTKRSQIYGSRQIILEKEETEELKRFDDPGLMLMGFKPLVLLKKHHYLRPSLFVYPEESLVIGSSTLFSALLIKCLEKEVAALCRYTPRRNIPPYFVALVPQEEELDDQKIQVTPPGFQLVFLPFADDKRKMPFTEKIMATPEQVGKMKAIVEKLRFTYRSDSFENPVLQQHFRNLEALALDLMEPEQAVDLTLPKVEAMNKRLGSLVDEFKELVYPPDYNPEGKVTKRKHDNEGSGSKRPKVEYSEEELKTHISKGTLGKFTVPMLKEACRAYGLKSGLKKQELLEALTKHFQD
UniProt P19784, whole entry, looked up: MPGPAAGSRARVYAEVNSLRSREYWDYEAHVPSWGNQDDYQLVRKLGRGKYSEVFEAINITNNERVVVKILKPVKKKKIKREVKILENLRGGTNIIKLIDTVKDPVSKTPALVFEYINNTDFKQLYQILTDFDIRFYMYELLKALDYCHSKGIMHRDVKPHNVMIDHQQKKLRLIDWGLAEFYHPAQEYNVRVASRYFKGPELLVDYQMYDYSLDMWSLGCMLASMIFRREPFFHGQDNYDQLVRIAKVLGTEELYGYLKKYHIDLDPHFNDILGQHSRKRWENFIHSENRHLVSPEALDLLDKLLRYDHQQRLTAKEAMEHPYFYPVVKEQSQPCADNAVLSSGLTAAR
UniProt P21675, whole entry: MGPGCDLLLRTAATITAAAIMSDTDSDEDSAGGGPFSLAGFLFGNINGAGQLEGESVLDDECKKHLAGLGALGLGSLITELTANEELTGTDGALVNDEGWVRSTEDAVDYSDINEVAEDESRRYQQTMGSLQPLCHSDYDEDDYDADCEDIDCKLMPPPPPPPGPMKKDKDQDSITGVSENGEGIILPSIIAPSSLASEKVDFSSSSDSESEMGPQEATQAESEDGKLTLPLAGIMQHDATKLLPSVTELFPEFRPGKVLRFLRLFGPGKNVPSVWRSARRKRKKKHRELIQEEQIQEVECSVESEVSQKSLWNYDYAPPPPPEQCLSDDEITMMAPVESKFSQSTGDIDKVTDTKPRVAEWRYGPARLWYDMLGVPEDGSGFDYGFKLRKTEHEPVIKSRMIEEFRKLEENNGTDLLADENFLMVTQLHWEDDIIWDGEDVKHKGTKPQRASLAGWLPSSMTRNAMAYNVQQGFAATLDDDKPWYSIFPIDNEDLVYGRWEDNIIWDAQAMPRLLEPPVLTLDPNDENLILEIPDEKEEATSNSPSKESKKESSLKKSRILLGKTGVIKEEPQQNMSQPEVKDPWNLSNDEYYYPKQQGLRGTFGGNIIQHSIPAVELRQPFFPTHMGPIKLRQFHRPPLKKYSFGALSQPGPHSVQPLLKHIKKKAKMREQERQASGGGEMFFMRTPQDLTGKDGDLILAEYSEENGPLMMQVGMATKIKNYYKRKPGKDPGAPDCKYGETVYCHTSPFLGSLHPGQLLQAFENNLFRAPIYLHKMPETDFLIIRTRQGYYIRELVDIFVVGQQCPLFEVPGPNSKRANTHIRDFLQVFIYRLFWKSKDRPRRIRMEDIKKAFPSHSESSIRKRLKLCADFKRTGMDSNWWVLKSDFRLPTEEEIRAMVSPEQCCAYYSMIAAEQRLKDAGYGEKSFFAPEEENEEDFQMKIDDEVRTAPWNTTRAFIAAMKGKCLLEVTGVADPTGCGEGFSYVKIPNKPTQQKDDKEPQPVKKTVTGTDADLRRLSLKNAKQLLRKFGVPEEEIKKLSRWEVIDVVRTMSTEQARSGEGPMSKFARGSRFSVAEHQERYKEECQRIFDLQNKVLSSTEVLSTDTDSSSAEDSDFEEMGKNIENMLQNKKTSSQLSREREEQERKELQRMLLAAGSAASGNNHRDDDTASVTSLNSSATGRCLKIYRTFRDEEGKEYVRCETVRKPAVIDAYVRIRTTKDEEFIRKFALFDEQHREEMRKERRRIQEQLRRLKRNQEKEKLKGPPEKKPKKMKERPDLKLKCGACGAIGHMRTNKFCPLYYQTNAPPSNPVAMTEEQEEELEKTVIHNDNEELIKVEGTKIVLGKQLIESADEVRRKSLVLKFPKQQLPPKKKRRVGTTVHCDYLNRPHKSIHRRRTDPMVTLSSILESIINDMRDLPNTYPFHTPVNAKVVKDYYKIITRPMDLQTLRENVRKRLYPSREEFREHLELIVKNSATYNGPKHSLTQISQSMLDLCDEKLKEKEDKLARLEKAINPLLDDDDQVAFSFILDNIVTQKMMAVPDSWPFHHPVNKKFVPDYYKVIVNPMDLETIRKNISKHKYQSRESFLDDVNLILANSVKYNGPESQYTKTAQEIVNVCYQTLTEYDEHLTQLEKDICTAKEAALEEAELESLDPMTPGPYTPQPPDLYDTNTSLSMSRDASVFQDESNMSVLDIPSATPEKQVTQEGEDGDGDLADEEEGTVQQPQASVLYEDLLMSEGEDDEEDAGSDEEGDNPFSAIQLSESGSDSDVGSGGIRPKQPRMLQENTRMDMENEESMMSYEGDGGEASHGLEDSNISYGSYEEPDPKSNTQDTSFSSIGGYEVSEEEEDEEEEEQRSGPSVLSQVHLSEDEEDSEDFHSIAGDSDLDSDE
UniProt P10606, whole entry: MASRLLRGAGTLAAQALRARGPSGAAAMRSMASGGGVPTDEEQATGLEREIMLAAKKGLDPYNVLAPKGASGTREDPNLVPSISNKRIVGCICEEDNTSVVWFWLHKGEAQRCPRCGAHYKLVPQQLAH
UniProt P14866: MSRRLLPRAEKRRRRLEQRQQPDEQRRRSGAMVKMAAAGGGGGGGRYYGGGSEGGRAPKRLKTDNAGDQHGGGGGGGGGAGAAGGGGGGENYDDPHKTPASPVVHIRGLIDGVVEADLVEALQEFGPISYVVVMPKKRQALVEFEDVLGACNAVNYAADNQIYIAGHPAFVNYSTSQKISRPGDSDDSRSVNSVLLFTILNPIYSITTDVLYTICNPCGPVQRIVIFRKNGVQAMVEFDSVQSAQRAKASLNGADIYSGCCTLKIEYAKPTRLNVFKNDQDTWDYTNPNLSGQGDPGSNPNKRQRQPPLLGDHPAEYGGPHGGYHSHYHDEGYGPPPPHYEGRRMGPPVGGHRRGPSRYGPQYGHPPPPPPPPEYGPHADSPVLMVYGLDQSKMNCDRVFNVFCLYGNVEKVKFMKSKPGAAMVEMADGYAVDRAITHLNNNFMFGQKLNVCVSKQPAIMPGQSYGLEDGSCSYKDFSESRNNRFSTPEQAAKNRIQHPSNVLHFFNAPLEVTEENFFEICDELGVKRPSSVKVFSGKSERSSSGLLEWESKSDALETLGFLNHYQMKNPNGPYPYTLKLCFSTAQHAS
UniProt P14317: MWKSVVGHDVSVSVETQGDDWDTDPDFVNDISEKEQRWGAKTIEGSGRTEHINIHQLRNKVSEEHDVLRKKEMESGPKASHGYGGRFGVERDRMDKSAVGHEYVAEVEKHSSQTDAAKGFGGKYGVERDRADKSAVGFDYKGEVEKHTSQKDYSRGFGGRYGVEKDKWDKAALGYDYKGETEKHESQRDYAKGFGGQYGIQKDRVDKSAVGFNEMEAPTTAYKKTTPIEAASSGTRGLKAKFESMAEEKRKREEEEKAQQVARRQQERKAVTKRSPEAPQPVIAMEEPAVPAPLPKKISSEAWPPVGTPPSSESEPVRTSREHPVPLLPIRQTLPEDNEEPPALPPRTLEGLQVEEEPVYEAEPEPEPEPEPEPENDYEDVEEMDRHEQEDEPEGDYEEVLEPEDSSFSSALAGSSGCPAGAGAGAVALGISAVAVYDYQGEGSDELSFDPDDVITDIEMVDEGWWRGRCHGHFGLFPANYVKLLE
UniProt P13796: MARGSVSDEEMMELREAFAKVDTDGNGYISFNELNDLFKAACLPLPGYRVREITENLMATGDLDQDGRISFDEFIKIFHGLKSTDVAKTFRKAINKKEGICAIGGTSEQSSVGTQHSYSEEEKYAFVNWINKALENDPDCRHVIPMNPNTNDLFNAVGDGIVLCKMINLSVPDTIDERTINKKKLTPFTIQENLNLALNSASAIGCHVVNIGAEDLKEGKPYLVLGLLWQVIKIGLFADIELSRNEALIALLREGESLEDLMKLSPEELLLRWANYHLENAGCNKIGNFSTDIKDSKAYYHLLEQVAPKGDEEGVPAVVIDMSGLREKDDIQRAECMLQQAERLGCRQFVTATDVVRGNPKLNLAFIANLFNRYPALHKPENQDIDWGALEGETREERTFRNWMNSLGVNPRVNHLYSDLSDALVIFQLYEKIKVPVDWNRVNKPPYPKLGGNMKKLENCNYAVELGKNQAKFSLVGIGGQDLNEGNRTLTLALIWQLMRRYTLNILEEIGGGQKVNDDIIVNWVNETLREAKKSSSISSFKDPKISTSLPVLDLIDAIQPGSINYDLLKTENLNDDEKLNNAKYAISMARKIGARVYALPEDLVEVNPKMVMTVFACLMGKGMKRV
UniProt P21912: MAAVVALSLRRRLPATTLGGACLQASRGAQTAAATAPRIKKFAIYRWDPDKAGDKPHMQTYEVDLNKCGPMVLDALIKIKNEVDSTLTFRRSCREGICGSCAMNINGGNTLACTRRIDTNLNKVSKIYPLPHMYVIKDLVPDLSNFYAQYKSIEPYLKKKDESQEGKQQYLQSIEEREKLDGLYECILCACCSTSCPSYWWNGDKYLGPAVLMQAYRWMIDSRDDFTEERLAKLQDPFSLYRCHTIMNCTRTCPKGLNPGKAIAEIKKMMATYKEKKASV
UniProt P16401, whole entry: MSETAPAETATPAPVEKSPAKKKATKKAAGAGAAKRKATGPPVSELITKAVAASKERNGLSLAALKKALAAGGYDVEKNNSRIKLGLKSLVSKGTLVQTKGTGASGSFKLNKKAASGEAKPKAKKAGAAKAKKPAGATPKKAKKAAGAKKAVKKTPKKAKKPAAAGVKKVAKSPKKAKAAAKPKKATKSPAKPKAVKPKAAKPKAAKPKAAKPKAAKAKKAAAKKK
UniProt P07339: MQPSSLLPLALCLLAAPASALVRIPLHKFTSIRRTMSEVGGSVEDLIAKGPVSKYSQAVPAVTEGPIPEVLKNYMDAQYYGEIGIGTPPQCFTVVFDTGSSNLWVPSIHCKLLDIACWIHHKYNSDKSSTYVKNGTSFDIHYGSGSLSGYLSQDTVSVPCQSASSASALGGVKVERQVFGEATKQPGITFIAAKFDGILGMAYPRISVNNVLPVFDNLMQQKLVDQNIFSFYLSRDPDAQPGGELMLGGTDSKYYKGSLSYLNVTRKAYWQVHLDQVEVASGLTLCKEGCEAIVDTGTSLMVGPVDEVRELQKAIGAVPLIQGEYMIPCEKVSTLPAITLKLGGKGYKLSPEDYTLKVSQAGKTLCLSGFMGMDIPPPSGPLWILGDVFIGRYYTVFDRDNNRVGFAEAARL
UniProt P07195, whole entry, looked up: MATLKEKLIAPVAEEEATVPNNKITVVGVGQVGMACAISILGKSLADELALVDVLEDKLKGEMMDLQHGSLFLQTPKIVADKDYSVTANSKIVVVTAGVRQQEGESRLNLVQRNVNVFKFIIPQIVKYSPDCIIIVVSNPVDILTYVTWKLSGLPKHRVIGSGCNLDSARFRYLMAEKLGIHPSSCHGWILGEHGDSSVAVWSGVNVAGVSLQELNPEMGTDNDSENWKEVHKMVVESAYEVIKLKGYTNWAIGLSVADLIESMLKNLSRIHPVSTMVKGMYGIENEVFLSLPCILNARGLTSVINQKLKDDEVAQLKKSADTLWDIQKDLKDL

± gives the standard deviation of the averaged measurements. The list shows a part of the results.

Compound in the assay: Nc1nc2c(ncn2[C@@H]2O[C@H](COP(=O)(O)OP(=O)(O)OP(=O)(O)O)[C@@H](O)[C@H]2O)c(=O)[nH]1 [guanosine triphosphate]
The experiment in a line: NP40-soluble protein abundance relative to vehicle (solubility fold change) (ratio); higher = more soluble protein in presence of GTP. The procedure, abridged:
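Eight concentrations, 0.1 to 10 mM, were tested on Jurkat crude lysate for 10 min at room temperature and then 3 min at 37 °C, in three independent experiments. The lysate was solubilised with 0.8% NP40 and benzonase, ultracentrifuged, and the supernatant TMT-labelled for LC-MS/MS. Each value is the fold change against the detergent-processed vehicle in its own replicate, from vsn-normalised intensities.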

In the case of UniProt P13929 and related entries, the NP40-soluble protein abundance is 0.951 ± 0.03 (concentration: 0.1mM); 0.985 ± 0.0047 (concentration: 0.5mM); 0.911 ± 0.021 (concentration: 1mM); 0.891 ± 0.029 (concentration: 2mM); 0.894 ± 0.014 (concentration: 4mM); 0.9201 ± 0.0063 (concentration: 6mM). Further, the NP40-soluble protein abundance worked out at 0.859 ± 0.046 (concentration: 8mM) and 0.86 ± 0.039 (concentration: 10mM).

As to UniProt P20963 and related entries, the NP40-soluble protein abundance reads like this: (concentration: 0.1mM) 0.993 ± 0.13; (concentration: 0.5mM) 0.946 ± 0.095; (concentration: 1mM) 1.12 ± 0.21; (concentration: 2mM) 1.1 ± 0.2; (concentration: 4mM) 1.08 ± 0.067; (concentration: 6mM) 1.07 ± 0.093. In addition, the NP40-soluble protein abundance worked out at 1.11 ± 0.24 (concentration: 8mM) and 1.21 ± 0.26 (concentration: 10mM).

For XRCC6 (UniProt P12956), the NP40-soluble protein abundance is, setting by setting: (concentration: 0.1mM) 0.961 ± 0.045; (concentration: 0.5mM) 1 ± 0.065; (concentration: 1mM) 0.931 ± 0.056; (concentration: 2mM) 0.929 ± 0.038; (concentration: 4mM) 0.933 ± 0.061; (concentration: 6mM) 0.919 ± 0.058. Further, the NP40-soluble protein abundance by setting is: (concentration: 8mM) 0.903 ± 0.062; (concentration: 10mM) 0.887 ± 0.029.

Regarding UniProt P19784, the NP40-soluble protein abundance (concentration: 0.1mM) was 1.03 ± 0.032; the NP40-soluble protein abundance (concentration: 0.5mM) was found to be 1.05 ± 0.064; the NP40-soluble protein abundance (concentration: 1mM) was 0.963 ± 0.047; the NP40-soluble protein abundance (concentration: 2mM) was 1.01 ± 0.097; the NP40-soluble protein abundance (concentration: 4mM) was determined as 1.01 ± 0.065; the NP40-soluble protein abundance (concentration: 6mM) was found to be 1.01 ± 0.075. Besides, the NP40-soluble protein abundance came out at 1.01 ± 0.043 (concentration: 8mM) and 0.994 ± 0.076 (concentration: 10mM).

Take UniProt P21675 and related entries: the NP40-soluble protein abundance (concentration: 0.1mM) amounted to 1.09 ± 0.048; the NP40-soluble protein abundance (concentration: 0.5mM) was determined as 1.152 ± 0.0092; the NP40-soluble protein abundance (concentration: 1mM) turned out to be 1.2 ± 0.099; the NP40-soluble protein abundance (concentration: 2mM) was 1.24 ± 0.1; the NP40-soluble protein abundance (concentration: 4mM) stood at 1.22 ± 0.12; the NP40-soluble protein abundance (concentration: 6mM) is 1.21 ± 0.12. The NP40-soluble protein abundance (concentration: 8mM) stood at 1.26 ± 0.15 and the NP40-soluble protein abundance (concentration: 10mM) was 1.26 ± 0.13.

As for COX5B (UniProt P10606), the NP40-soluble protein abundance (concentration: 0.1mM) came to 0.9 ± 0.051; the NP40-soluble protein abundance (concentration: 0.5mM) was found to be 0.965 ± 0.079; the NP40-soluble protein abundance (concentration: 1mM) was 0.965 ± 0.067; the NP40-soluble protein abundance (concentration: 2mM) turned out to be 0.969 ± 0.096; the NP40-soluble protein abundance (concentration: 4mM) came out at 0.97 ± 0.14; the NP40-soluble protein abundance (concentration: 6mM) is 1.02 ± 0.11. The NP40-soluble protein abundance by setting is: (concentration: 8mM) 1.05 ± 0.11; (concentration: 10mM) 1.09 ± 0.15.

Take HNRNPL (UniProt P14866): the NP40-soluble protein abundance reads like this: (concentration: 0.1mM) 1.03 ± 0.021; (concentration: 0.5mM) 1.1 ± 0.061; (concentration: 1mM) 1.12 ± 0.11; (concentration: 2mM) 1.15 ± 0.12; (concentration: 4mM) 1.19 ± 0.16; (concentration: 6mM) 1.2 ± 0.16. For the same target, the NP40-soluble protein abundance by setting is: (concentration: 8mM) 1.27 ± 0.2; (concentration: 10mM) 1.23 ± 0.18.

Take HCLS1 (UniProt P14317): the NP40-soluble protein abundance is, setting by setting: (concentration: 0.1mM) 0.877 ± 0.12; (concentration: 0.5mM) 0.938 ± 0.13; (concentration: 1mM) 0.906 ± 0.12; (concentration: 2mM) 0.871 ± 0.15; (concentration: 4mM) 0.833 ± 0.13; (concentration: 6mM) 0.879 ± 0.13. Further, the NP40-soluble protein abundance was determined as 0.888 ± 0.11 (concentration: 8mM) and 0.899 ± 0.14 (concentration: 10mM).

Consider LCP1 (UniProt P13796), for which the NP40-soluble protein abundance was 1.03 ± 0.14 (concentration: 0.1mM); 0.873 ± 0.1 (concentration: 0.5mM); 0.985 ± 0.096 (concentration: 1mM); 0.818 ± 0.14 (concentration: 2mM); 0.96 ± 0.11 (concentration: 4mM); 0.813 ± 0.12 (concentration: 6mM). In addition, the NP40-soluble protein abundance (concentration: 8mM) is 0.865 ± 0.085 and the NP40-soluble protein abundance (concentration: 10mM) came to 0.801 ± 0.095.

In the case of SDHB (UniProt P21912), the NP40-soluble protein abundance reads like this: (concentration: 0.1mM) 1.01 ± 0.054; (concentration: 0.5mM) 0.898 ± 0.046; (concentration: 1mM) 1.03 ± 0.071; (concentration: 2mM) 0.899 ± 0.063; (concentration: 4mM) 1 ± 0.074; (concentration: 6mM) 0.894 ± 0.044. Further, the NP40-soluble protein abundance came out at 0.972 ± 0.09 (concentration: 8mM) and 0.863 ± 0.049 (concentration: 10mM).

Regarding HIST1H1B (UniProt P16401), the NP40-soluble protein abundance is, setting by setting: (concentration: 0.1mM) 0.956 ± 0.023; (concentration: 0.5mM) 0.937 ± 0.02; (concentration: 1mM) 1.09 ± 0.037; (concentration: 2mM) 1.15 ± 0.014; (concentration: 4mM) 1.22 ± 0.042; (concentration: 6mM) 1.272 ± 0.012. Further, the NP40-soluble protein abundance was 1.22 ± 0.039 (concentration: 8mM) and 1.73 ± 0.19 (concentration: 10mM).

In the case of CTSD (UniProt P07339), the NP40-soluble protein abundance (concentration: 0.1mM) worked out at 0.929 ± 0.041; the NP40-soluble protein abundance (concentration: 0.5mM) turned out to be 0.945 ± 0.032; the NP40-soluble protein abundance (concentration: 1mM) was 0.911 ± 0.042; the NP40-soluble protein abundance (concentration: 2mM) worked out at 0.861 ± 0.022; the NP40-soluble protein abundance (concentration: 4mM) was 0.863 ± 0.034; the NP40-soluble protein abundance (concentration: 6mM) was found to be 0.865 ± 0.036. The NP40-soluble protein abundance (concentration: 8mM) turned out to be 0.857 ± 0.056 and the NP40-soluble protein abundance (concentration: 10mM) came out at 0.837 ± 0.047.

Consider LIG1 (UniProt P18858), for which the NP40-soluble protein abundance (concentration: 0.1mM) came to 0.993 ± 0.032; the NP40-soluble protein abundance (concentration: 0.5mM) came out at 0.993 ± 0.031; the NP40-soluble protein abundance (concentration: 1mM) was found to be 0.962 ± 0.044; the NP40-soluble protein abundance (concentration: 2mM) worked out at 0.925 ± 0.029; the NP40-soluble protein abundance (concentration: 4mM) turned out to be 0.921 ± 0.043; the NP40-soluble protein abundance (concentration: 6mM) worked out at 0.916 ± 0.045. The NP40-soluble protein abundance turned out to be 0.941 ± 0.052 (concentration: 8mM) and 0.89 ± 0.041 (concentration: 10mM).

Regarding UniProt P24539 and related entries, the NP40-soluble protein abundance is 0.856 ± 0.14 (concentration: 0.1mM); 0.84 ± 0.045 (concentration: 0.5mM); 1.06 ± 0.17 (concentration: 1mM); 1.11 ± 0.15 (concentration: 2mM); 1.08 ± 0.21 (concentration: 4mM); 1.13 ± 0.14 (concentration: 6mM). Besides, the NP40-soluble protein abundance (concentration: 8mM) is 0.949 ± 0.2 and the NP40-soluble protein abundance (concentration: 10mM) was 1.15 ± 0.24.

On to LDHB (UniProt P07195), for which the NP40-soluble protein abundance (concentration: 0.1mM) stood at 0.965 ± 0.028; the NP40-soluble protein abundance (concentration: 0.5mM) amounted to 0.983 ± 0.013; the NP40-soluble protein abundance (concentration: 1mM) came to 0.942 ± 0.032; the NP40-soluble protein abundance (concentration: 2mM) turned out to be 0.887 ± 0.021; the NP40-soluble protein abundance (concentration: 4mM) turned out to be 0.876 ± 0.04; the NP40-soluble protein abundance (concentration: 6mM) was found to be 0.892 ± 0.015. The NP40-soluble protein abundance by setting is: (concentration: 8mM) 0.876 ± 0.028; (concentration: 10mM) 0.856 ± 0.042.
